Reference: publication PMC3412267
These are yes or no findings as the source states them, for the method shown. In cells and extracts the contact can be indirect. For part of these data: A result given as binding can be weak or reduced; the word gives no strength. Sequences can lack the tags named with a protein.

Tests used:
[1] = target: T1, human GST-SCGN fusion protein (full-length Secretagogin) (human) (UniProt O76038); experiment: condition: only with EDTA (2.5, 5.0, 7.5 and 10.0 mM) in the lysate; pull-down; GST-SCGN on Glutathione-Sepharose 4B beads incubated with rat brain lysate in TPBS with 1 mM PMSF, 4°C, 90 min, with EDTA (2.5, 5.0, 7.5 or 10.0 mM) in the lysate; immunoblot with pan-Tau antibody; only the target purified
T1 sequence: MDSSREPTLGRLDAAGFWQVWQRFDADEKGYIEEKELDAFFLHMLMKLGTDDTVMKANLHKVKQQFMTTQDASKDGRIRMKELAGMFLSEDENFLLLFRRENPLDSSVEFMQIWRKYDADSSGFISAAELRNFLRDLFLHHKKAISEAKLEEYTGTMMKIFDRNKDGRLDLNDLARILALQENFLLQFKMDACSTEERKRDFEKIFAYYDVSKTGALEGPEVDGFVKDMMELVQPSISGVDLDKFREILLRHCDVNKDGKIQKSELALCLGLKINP

[2] = target: T2, Secretagogin (rat), endogenous in rat brain (rat (endogenous in rat brain)) (UniProt Q6R556); experiment: co-IP; anti-Secretagogin antibody (D24 mAb) cross-linked to protein G magnetic beads, incubated with rat brain extract at 4°C for 2 h; washes with TPBS; elution with 100 mM glycine pH 2.0; immunoblot with anti-pan-Tau and anti-SCGN
T2 sequence: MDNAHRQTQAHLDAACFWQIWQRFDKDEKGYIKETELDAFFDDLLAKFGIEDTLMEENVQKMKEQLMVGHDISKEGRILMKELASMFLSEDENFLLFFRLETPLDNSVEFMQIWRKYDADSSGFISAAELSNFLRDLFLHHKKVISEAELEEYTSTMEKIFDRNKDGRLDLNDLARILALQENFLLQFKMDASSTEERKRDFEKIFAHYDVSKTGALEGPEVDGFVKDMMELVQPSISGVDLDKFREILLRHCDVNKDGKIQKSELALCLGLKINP

[3] = target: T1, human GST-SCGN fusion protein (full-length Secretagogin) (human); experiment: pull-down; GST-SCGN on Glutathione-Sepharose 4B beads incubated with rat brain lysate in TPBS with 1 mM PMSF, 4°C, 90 min, without EDTA; elution with 10 mM EDTA; immunoblot with pan-Tau antibody; only the target purified

- binding [1]: no binding
- binding [2]: binds
- binding [3]: binds
Substance: microtubule-associated protein Tau, endogenous in rat brain (from UniProt P19332-5)
